Data from patent US9970924B2, “Mechanism and drug targets for reducing cell edema (neuroprotection) and cytoplasmic excitability in astrocytes in normal and pathological states” (CELICA D.O.O., priority 2013, dated 2018).
At least one compound was matched to its structure with a doubt left.

System: intracellular cAMP levels in astrocytes
Test: FRET measurements of cAMP in living primary astrocytes transfected with Epac1-camps
Conditions: 50 μM FSK

## C=C[C@@]1(C)CC(=O)[C@]2(O)[C@@]3(C)[C@@H](O)CCC(C)(C)[C@@H]3[C@H](O)[C@H](OC(C)=O)[C@@]2(C)O1 [FSK, forskolin]
  intracellular cAMP levels (Epac1-camps YFP/CFP ratio; decline = cAMP increase): increase in intracellular cAMP levels
